One compound from paper PMC10190190 (Journal of Enzyme Inhibition and Medicinal Chemistry, 2023) can be followed below.

This data set concerns SH-SY5Y cells. As to the kind of experiment: Cell viability assay. As to conditions: read-out: cytotoxicity towards SH-SY5Y cells IC50; alamar blue, 24 h. In kind it is cell-based, human.

Turning to `O=C(CCCCCCC(=O)Nc1ccccc1)NO` [SAHA], the IC50 came to 2420 nM.
